Results reported in PMC11140114.
Results are given in words; binding and its absence hold for the method and conditions named. Binding seen in cells or lysates may run through a third protein. Here binding means that the protein was enriched with, or labelled near, the bait; the list need not be complete.

Chains of the proteins cited; added tags and fusions are not shown.
UniProt O00429: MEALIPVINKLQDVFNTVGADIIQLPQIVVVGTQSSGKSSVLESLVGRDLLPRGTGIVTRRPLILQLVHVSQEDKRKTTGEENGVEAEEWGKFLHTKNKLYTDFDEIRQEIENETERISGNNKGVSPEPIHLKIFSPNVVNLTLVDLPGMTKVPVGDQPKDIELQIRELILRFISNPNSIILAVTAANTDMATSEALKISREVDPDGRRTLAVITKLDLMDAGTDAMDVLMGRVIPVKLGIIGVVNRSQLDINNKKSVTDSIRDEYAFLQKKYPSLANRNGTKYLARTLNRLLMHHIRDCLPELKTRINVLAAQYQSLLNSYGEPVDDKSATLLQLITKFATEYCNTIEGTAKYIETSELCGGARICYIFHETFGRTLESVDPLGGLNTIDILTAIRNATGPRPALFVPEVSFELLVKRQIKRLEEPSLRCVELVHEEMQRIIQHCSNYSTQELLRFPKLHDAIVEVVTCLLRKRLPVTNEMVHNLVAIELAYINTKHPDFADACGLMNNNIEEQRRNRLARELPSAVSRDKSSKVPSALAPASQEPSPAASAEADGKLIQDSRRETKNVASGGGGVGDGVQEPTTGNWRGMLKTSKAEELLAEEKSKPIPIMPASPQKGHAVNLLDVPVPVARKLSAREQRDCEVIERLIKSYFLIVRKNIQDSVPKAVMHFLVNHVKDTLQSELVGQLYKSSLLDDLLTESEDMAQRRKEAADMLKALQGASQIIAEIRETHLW
UniProt Q9UBN7: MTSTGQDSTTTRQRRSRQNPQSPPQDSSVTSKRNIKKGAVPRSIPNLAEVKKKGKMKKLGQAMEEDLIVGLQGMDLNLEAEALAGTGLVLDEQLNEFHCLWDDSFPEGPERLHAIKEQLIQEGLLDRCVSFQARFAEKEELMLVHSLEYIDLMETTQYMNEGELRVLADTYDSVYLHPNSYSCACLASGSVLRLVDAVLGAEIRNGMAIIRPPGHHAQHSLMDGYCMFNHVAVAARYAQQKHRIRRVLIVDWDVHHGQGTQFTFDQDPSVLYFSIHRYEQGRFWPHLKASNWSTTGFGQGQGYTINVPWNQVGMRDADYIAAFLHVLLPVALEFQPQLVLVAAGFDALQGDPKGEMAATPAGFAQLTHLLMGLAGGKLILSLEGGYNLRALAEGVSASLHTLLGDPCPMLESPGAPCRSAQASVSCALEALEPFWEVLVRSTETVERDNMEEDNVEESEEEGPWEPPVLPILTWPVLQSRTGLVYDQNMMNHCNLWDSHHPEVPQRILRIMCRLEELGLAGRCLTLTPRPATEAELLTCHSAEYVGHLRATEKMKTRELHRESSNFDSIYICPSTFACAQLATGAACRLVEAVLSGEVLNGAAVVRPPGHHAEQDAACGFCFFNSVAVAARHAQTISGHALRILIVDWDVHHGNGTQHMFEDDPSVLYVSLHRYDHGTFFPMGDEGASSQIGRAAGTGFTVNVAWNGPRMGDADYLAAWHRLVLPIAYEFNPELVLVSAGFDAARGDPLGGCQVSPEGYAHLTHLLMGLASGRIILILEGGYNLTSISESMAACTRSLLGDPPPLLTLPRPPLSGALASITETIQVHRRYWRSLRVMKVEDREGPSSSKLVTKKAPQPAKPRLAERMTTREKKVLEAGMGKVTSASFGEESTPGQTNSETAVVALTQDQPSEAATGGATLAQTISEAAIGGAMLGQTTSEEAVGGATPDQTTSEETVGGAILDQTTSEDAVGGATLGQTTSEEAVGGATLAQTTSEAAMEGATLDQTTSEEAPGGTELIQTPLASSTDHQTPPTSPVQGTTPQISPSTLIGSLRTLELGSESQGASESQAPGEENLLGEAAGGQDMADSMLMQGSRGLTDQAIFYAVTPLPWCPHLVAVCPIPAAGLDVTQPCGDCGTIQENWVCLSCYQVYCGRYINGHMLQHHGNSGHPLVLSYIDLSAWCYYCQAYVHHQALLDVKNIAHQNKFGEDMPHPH

Biological target: endogenous Drp1 (human (endogenous in HEK293, HeLa, U2OS)) (UniProt O00429)
Test: affinity purification with mass spectrometry; proteins enriched together with endogenous Drp1 on the D7 and D63 nanotraps against GFP-Trap, soluble protein fraction of HEK293 cells; multi-volcano analysis, class A FDR 0.01, class B FDR 0.05

In the case of “Histone deacetylase 6 (from UniProt Q9UBN7 1-1215) (enzyme)”, the binding is reported as “binds”.
